Reference: PMC10605189
Results are given in words; binding and its absence hold for the method and conditions named. For some assays here: In cells and extracts the contact can be indirect. Some results given as binding are weak or reduced against the parent protein; the word gives no strength. Values belong to the molecule of their own block, whether it stands above or below them.

Protein sequences, listed by entry. Tags and fused reporters are not part of them.
UniProt P45973: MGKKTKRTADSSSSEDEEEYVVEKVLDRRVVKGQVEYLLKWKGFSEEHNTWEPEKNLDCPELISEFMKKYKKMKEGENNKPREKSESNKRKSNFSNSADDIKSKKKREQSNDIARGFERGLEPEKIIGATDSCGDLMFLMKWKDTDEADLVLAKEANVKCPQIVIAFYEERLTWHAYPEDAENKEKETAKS
UniProt Q06265: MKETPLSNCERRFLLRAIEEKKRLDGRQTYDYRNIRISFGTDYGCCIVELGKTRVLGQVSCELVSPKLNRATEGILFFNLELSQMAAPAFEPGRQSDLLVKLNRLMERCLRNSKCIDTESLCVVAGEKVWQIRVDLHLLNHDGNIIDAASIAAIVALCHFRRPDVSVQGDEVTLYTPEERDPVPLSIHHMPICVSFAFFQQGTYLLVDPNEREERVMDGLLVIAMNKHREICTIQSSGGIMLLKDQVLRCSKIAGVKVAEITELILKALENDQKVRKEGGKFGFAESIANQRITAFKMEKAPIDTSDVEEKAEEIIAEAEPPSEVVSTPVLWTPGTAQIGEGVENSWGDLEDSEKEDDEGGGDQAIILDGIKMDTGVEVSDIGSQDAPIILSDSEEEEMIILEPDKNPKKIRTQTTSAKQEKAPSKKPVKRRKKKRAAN

Experiments:
[1] = target: endogenous chromatin-bound HP1α of MCF10-2A cells (human (endogenous in MCF10-2A)) (UniProt P45973); test: co-IP; chromatin-bound protein immunoprecipitation (CB/IP) with HP1α antibody and protein-A agarose; MCF10-2A cells synchronized by double thymidine block, collected in S/G2; lysis buffer with protease inhibitor and N-ethylmaleimide; Western blot
[2] = target: endogenous chromatin-bound HP1α of MCF10-2A cells (human (endogenous in MCF10-2A)) (UniProt P45973); test: condition: only cells synchronized in G1/S or S phase; co-IP; chromatin-bound protein immunoprecipitation (CB/IP) with HP1α antibody and protein-A agarose; MCF10-2A cells synchronized by double thymidine block, collected in G1/S and S; lysis buffer with protease inhibitor and N-ethylmaleimide; Western blot
[3] = target: unmodified HP1α recombinant protein (heterochromatin protein 1 alpha) (UniProt P45973); test: pull-down; cell-free bait-prey study: recombinant HP1α (unmodified or SUMOylated in vitro) immunoprecipitated, immobilized on agarose beads and incubated with recombinant Exosc9; eluate analysed by SDS-PAGE and Western blot, densitometry with ImageJ; both purified
[4] = target: endogenous chromatin-bound HP1α of MCF10-2A cells (human (endogenous in MCF10-2A)) (UniProt P45973); test: co-IP; chromatin-bound protein immunoprecipitation (CB/IP) with HP1α antibody and protein-A agarose; MCF10-2A cells synchronized by double thymidine block, collected in G1/S and S; lysis buffer with protease inhibitor and N-ethylmaleimide; Western blot

binding [1]: binds
binding [2]: no binding
Molecule: endogenous Exosc9 of MCF10-2A cells (from UniProt Q06265 1-439)

binding [3]: binds
Molecule: recombinant Exosc9 protein (exosome component 9) (from UniProt Q06265 1-439)

binding [4]: binds
B1: endogenous SENP7L of MCF10-2A cells (deSUMOylase enzyme) (enzyme, UniProt Q9BQF6 1-1050)
chain: MDKRKLGRRPSSSEIITEGKRKKSSSDLSEIRKMLNAKPEDVHVQSPLSKFRSSERWTLPLQWERSLRNKVISLDHKNKKHIRGCPVTSKSSPERQLKVMLTNVLWTDLGRKFRKTLPRNDANLCDANKVQSDSLPSTSVDSLETCQKLEPLRQSLNLSERIPRVILTNVLGTELGRKYIRTPPVTEGSLSDTDNLQSEQLSSSSDGSLESYQNLNPHKSCYLSERGSQRSKTVDDNSAKQTAHNKEKRRKDDGISLLISDTQPEDLNSGSRGCDHLEQESRNKDVKYSDSKVELTLISRKTKRRLRNNLPDSQYCTSLDKSTEQTKKQEDDSTISTEFEKPSENYHQDPKLPEEITTKPTKSDFTKLSSLNSQELTLSNATKSASAGSTTETVENSNSIDIVGISSLVEKDENELNTIEKPILRGHNEGNQSLISAEPIVVSSDEEGPVEHKSSEILKLQSKQDRETTNENESTSESALLELPLITCESVQMSSELCPYNPVMENISSIMPSNEMDLQLDFIFTSVYIGKIKGASKGCVTITKKYIKIPFQVSLNEISLLVDTTHLKRFGLWKSKDDNHSKRSHAILFFWVSSDYLQEIQTQLEHSVLSQQSKSSEFIFLELHNPVSQREELKLKDIMTEISIISGELELSYPLSWVQAFPLFQNLSSKESSFIHYYCVSTCSFPAGVAVAEEMKLKSVSQPSNTDAAKPTYTFLQKQSSGCYSLSITSNPDEEWREVRHTGLVQKLIVYPPPPTKGGLGVTNEDLECLEEGEFLNDVIIDFYLKYLILEKASDELVERSHIFSSFFYKCLTRKENNLTEDNPNLSMAQRRHKRVRTWTRHINIFNKDYIFVPVNESSHWYLAVICFPWLEEAVYEDFPQTVSQQSQAQQSQNDNKTIDNDLRTTSTLSLSAEDSQSTESNMSVPKKMCKRPCILILDSLKAASVQNTVQNLREYLEVEWEVKLKTHRQFSKTNMVDLCPKVPKQDNSSDCGVYLLQYVESFFKDPIVNFELPIHLEKWFPRHVIKTKREDIRELILKLHLQQQKGSSS
binding [1]: no binding (condition: cells synchronized in S/G2)
